Hit rate of the full screen: of about 400,000 compounds, about 13,000 (3.2%) were called active. Inconclusive means that the source gave no clear call. Such entries were picked first, then a sample of the others. The call rests on the fitted dose curve; in most records, active means well fitted cell-killing curve with a large enough effect; inconclusive means small, poorly fitted or top-dose-only effect, or effect the other way; inactive means flat fitted curve, though single readings scatter. Potencies beside an inconclusive call are fits to weak or partial responses and may not hold up.
Assay: qHTS assay for MDR1-selective chemotherapeutics: Primary screen using the drug-selected MDR subline cells KB-V1; further: nearly all actives have a fitted effect of over 60% in size
Conditions: KB-V1 MDR cells viability, CellTiter-Glo, 72 h; activity change, negative = cytotoxicity: at 46.1 µM (top of the series)
Method in brief: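 KB-V1 cells (P-gp-expressing MDR subline of KB-3-1) in phenol-red-free DMEM with 10% FBS were exposed to library compounds over a concentration series for 72 h at 37 degrees C. Viability read by CellTiter-Glo luminescence; concentration-effect curves fitted after normalization.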
In the case of `CCOC(=O)c1c(NC(=O)C2=C(C)NC(=S)NC2c2ccc(F)cc2F)sc(C)c1C` (configuration not stated), the Potency was inconclusive: 29.1 µM [cytotoxic, single point]. With `COC(C/C=C\[C@H](O)[C@H](C)OCc1ccccc1)OC` the Potency was inconclusive: 29.1 µM [rising, single point]. For `Cn1c(N)c(C(=O)COC(=O)/C=C/c2ccccc2)c(=O)n(C)c1=O`, the Potency was “inactive”. In the case of `Cc1ccc(-c2n[nH]c(=S)n2/N=C/c2cc3c(cc2[N+](=O)[O-])OCO3)cc1`, the Potency was active: 8.2 µM. In the case of `C(=C\c1ccnc2ccccc12)/c1ccccc1`, the Potency was inconclusive: 0.0073 µM [cytotoxic, full curve, poor fit]. In the case of `CCCc1cc(=O)[nH]c(SCC(=O)c2cc(C)n(C(C)COC)c2C)n1` (configuration not stated), the Potency was “inactive”. For `Cn1c(-c2ccc3ccccc3n2)[n+](C)c2ccccc21`, the Potency was inconclusive: 2.91 µM [rising, full curve, poor fit]. With `COC1=CC(=O)C(O)=C(CCCCCCC/C=C/CCCCCCCC2=C(O)C(=O)C=C(OC)C2=O)C1=O` the Potency was inconclusive: 23.1 µM [rising, partial curve]. With `Cc1ccc(-c2nc3cc(C(C)C)ccc3o2)cc1NC(=O)c1cccs1` the Potency was inconclusive: 14.6 µM [cytotoxic, partial curve, poor fit]. For `O=C(Cc1cccs1)N1CCN(S(=O)(=O)c2ccc(Cl)c(C(F)(F)F)c2)CC1`, the activity change, negative = cytotoxicity was inconclusive: 6.27%. In the case of `CCN(CC)C(=O)C(=O)N/N=C/c1ccc(C(=O)O)cc1`, the Potency was inconclusive: 5.17 µM [rising, partial curve, poor fit]. In the case of `CCN(CC)c1ccc(C(=O)OCC(=O)Nc2ccccc2-c2ccccc2)cc1`, the Potency was inconclusive: 23.1 µM [cytotoxic, single point]. For `COc1cc(Cn2c(=O)sc3ccccc32)ccc1OC(C)C`, the Potency was “inactive”. With `CCCC(NS(=O)(=O)c1ccc(-c2ccc(=O)[nH]n2)s1)c1cccs1` (configuration not stated) the Potency was “inactive”. For `Cc1cc(C)n2nc(SCC(=O)Nc3ccccc3)nc2n1`, the Potency was inconclusive: 16.4 µM [cytotoxic, single point]. With `N#C/C(=C\c1c(Oc2ccccc2Cl)nc2ccccn2c1=O)C(=O)NC1CCS(=O)(=O)C1` (configuration not stated) the Potency was inconclusive: 0.0073 µM [cytotoxic, full curve]. With `Cc1nn(C)c(C)c1S(=O)(=O)N1CCC(C(=O)NCCC2=CCCCC2)CC1` the Potency was inconclusive: 18.4 µM [rising, single point]. In the case of `CCCSc1ccc(-c2nn(-c3ccccc3)cc2/C=C(/C#N)C(=O)NCCCOC)cc1`, the Potency was inconclusive: 1.84 µM [cytotoxic, full curve]. With `Cc1cc(C(=O)CSc2nnc(-c3ccc(Cl)cc3)n2CC2CCCO2)c(C)n1C` (configuration not stated) the Potency was active: 6.51 µM. With `CCOC(=O)/C(C#N)=C/c1c(Oc2cccc(C)c2)nc2c(C)cccn2c1=O` the Potency was inconclusive: 29.1 µM [cytotoxic, partial curve, poor fit]. In the case of `COc1cc(-c2nnc(SCC(=O)Nc3ccc(F)c(Cl)c3)o2)cc(OC)c1OC`, the activity change, negative = cytotoxicity was inconclusive: -26.6%. With `CC(C)N(Cc1ccccc1)C(=O)CCS(=O)(=O)c1cc2c(cc1Cl)NC(=O)CO2` the Potency was inconclusive: 23.1 µM [cytotoxic, partial curve, poor fit]. With `COc1ccc2c(c1)CC[C@@H]1[C@@H]2CC[C@]2(C)[C@@H](C(=O)O)C[C@@H]12` the Potency was inconclusive: 11.6 µM [rising, partial curve, poor fit]. In the case of `COc1ccc(C(=O)N2CCN(c3ccccc3)CC2)cc1S(=O)(=O)N1CCCC1`, the Potency was inconclusive: 6.51 µM [cytotoxic, partial curve]. In the case of `Cc1cc(C(=O)Nc2nnc(C3CCCCC3)s2)cs1`, the Potency was inconclusive: 7.31 µM [cytotoxic, partial curve]. In the case of `Cn1c(=O)c2c(SCC(=O)NCc3ccco3)nc(CC(C)(C)C)nc2n(C)c1=O`, the Potency was inconclusive: 29.1 µM [cytotoxic, single point]. In the case of `COC(CNC(=O)c1ccc(N2CCc3ccccc32)c([N+](=O)[O-])c1)OC`, the Potency was active: 14.6 µM. In the case of `CC(=O)n1c(-c2ccccc2)c(CO)c2ccccc21`, the Potency was “inactive”. For `CC1=C(C(=O)OCc2ccccc2)C(c2ccccc2OC(F)F)NC(=O)N1` (configuration not stated), the Potency was inconclusive: 1.84 µM [cytotoxic, full curve]. With `Cc1cc2nc(-c3cc(NC(=O)c4cc5ccccc5o4)ccc3Cl)oc2cc1C` the Potency was “inactive”. With `Cc1nc(C)c(C(=O)N/N=C/c2c[nH]c3ccccc23)s1` the Potency was inconclusive: 29.1 µM [cytotoxic, single point]. In the case of `CCCN1C=CC(=C2C(=O)c3ccccc3C2=O)C=C1`, the Potency was active: 2.91 µM. For `COc1ccc(CCNC(=O)CN(c2ccccc2)S(=O)(=O)c2ccccc2)cc1`, the Potency was inconclusive: 5.8 µM [cytotoxic, partial curve, poor fit]. For `COC(=O)c1csc(S(=O)(=O)N2CCOCC2)c1OC`, the Potency was inconclusive: 29.1 µM [rising, single point]. For `CCOC(=O)c1c2ccccc2[n+]([O-])n1[C@@H](C)C(N)=O`, the Potency was “inactive”. In the case of `O=C(COC(=O)c1ccccc1N1C(=O)C2C3CCC(C3)C2C1=O)c1ccccc1` (configuration not stated), the Potency was “inactive”. For `COc1ccc(/C=N/NC(=O)c2cc(C(C)(C)C)[nH]n2)cc1COc1ccc(F)cc1F`, the Potency was inconclusive: 18.4 µM [cytotoxic, single point]. For `CC1CCc2cc(F)ccc2N1S(=O)(=O)c1ccc(Cl)nc1` (configuration not stated), the Potency was inconclusive: 29.1 µM [cytotoxic, single point]. In the case of `O=C(c1ccc(F)cc1)C1CCN(C(=O)Nc2ccc(F)cc2F)CC1`, the Potency was inconclusive: 16.4 µM [cytotoxic, partial curve]. With `O=C1CC(c2ccccc2C(F)(F)F)c2c(c3ccccc3[nH]c2=O)O1` (configuration not stated) the Potency was inconclusive: 18.4 µM [rising, single point]. With `CC(C)[C@H](NC(=O)OC(C)(C)C)c1cc(C(=O)NC2CC2)c(N)s1` the Potency was inconclusive: 18.4 µM [cytotoxic, partial curve]. For `O=Cc1cccc2ccc3cccc(C(=O)O)c3c12`, the Potency was “inactive”. For `CC(=O)c1cccc(-c2ccnc3c2CC(C(=O)NCCC(F)(F)F)O3)c1` (configuration not stated), the Potency was inconclusive: 20.6 µM [cytotoxic, single point]. In the case of `CC(C)(C)OC(=O)NCCc1nnc(S(=O)(=O)Cc2ccc(Cl)cc2Cl)o1`, the Potency was “inactive”. For `CCC(C)NCC(O)COCc1ccc(Cl)cc1` (configuration not stated), the Potency was inconclusive: 18.4 µM [cytotoxic, single point]. For `Cc1ccccc1-n1ncc2c1CC(C)(C)CC2NC(=O)c1cn[nH]c1C` (configuration not stated), the Potency was inconclusive: 29.1 µM [rising, single point]. With `NNC(=O)c1c(O)c2cccc3c2n(c1=O)CCC3` the Potency was inconclusive: 29.1 µM [cytotoxic, single point]. With `Cc1cccc(C)c1-n1nnnc1C1(C)CCC(=O)N1C1CC1` (configuration not stated) the Potency was “inactive”. For `CCOc1ccc(CCNC(=O)CS(=O)Cc2nc(-c3ccc(C)cc3)oc2C)cc1` (configuration not stated), the Potency was inconclusive: 20.6 µM [cytotoxic, single point]. With `OC(c1ccccc1)(c1ccccc1)C1CCN(CCCOc2ccccc2)CC1` the Potency was inconclusive: 4.61 µM [cytotoxic, partial curve, poor fit]. With `CC(C)n1nnnc1C1c2ccccc2C(=O)N1C1CC1` (configuration not stated) the Potency was “inactive”. In the case of `CCCc1nc(C)c2c(=O)[nH]c(-c3cc(S(=O)(=O)N4CCN(CC)CC4)ccc3OCC)nn12`, the Potency was inconclusive: 1.84 µM [cytotoxic, full curve]. In the case of `CC(=O)Cc1nsc(NC(=O)c2ccc(-c3ccc(Cl)cc3Cl)o2)n1`, the Potency was “inactive”. With `CC(C)=CCC[C@H](C)C[C@@H]1Cc2[nH][nH]c(=O)c2[C@H](c2ccc(Cl)cc2)O1` the Potency was “inactive”. For `CC(C)CC(NS(=O)(=O)c1ccc2c(c1)oc(=O)n2C)C(=O)NCCc1ccc(Cl)cc1` (configuration not stated), the Potency was “inactive”. For `CCCC(C(=O)NC(C)(C)C)N(Cc1ccccc1Cl)C(=O)c1snc(C(N)=O)c1N` (configuration not stated), the Potency was inconclusive: 29.1 µM [cytotoxic, single point]. In the case of `CC(Oc1ccccc1)C(=O)N[C@@H]1C(=O)N2[C@@H]1SC(C)(C)[C@@H]2C(=O)OCc1ccccc1` (some centres not stated), the activity change, negative = cytotoxicity was inconclusive: -33% [cytotoxic]. With `CC(C)[C@H](NC(=O)c1ccccc1)C(=O)NC1CCCCCCC1` the activity change, negative = cytotoxicity was inconclusive: -13%. With `CC1CCc2sc(C(=O)OCC(=O)NC(C)C)cc2C1` (configuration not stated) the Potency was “inactive”. For `C[C@@H]1COc2cc(N3CCC[C@H]3CO)ccc2S(=O)(=O)N1`, the Potency was “inactive”. With `CN(C)C(=O)N1CCN(C(=O)c2ccccc2Sc2ccccc2C#N)CC1` the Potency was inconclusive: 18.4 µM [cytotoxic, single point]. In the case of `CC(=O)N(C(C)=O)c1c(C#N)c(C)n(-c2ccccc2)c1C(=O)c1ccccc1`, the Potency was inconclusive: 20.6 µM [cytotoxic, partial curve, poor fit]. With `CCn1c(C)cc(O)cc1=O` the Potency was inconclusive: 29.1 µM [rising, single point]. With `COc1ccc(/C(C)=N/NC(=O)c2ccc(CSc3cccc4cccnc34)cc2)cc1OC` the Potency was inconclusive: 23.1 µM [cytotoxic, partial curve, poor fit]. With `C/C(=C\c1ccco1)C1C(C#N)=C(N)Oc2n[nH]c(-c3ccccc3)c21` (configuration not stated) the Potency was inconclusive: 1.46 µM [rising, full curve, poor fit]. With `Cc1cc(S(=O)(=O)Nc2ccc(C(=O)N3CC(C)OC(C)C3)cc2)ccc1F` (configuration not stated) the Potency was inconclusive: 29.1 µM [cytotoxic, single point]. For `CC(CCC(C)OC(=O)c1ccccc1C(=O)O)OC(=O)c1ccccc1C(=O)O` (configuration not stated), the Potency was inconclusive: 5.8 µM [rising, full curve].

Reference: PubChem BioAssay AID1347076 (National Center for Advancing Translational Sciences (NCATS), 2019)
On the % scale 0 is the no-effect control and ±100 the full control effect; potency means the concentration at half of the fitted maximal effect.
